The values that follow come from paper PMC6135752.

Amino acid sequences for entries named in this document (tags omitted). A change or cut given only in a name is not applied to a line headed by its entry.
UniProt Q96EB6: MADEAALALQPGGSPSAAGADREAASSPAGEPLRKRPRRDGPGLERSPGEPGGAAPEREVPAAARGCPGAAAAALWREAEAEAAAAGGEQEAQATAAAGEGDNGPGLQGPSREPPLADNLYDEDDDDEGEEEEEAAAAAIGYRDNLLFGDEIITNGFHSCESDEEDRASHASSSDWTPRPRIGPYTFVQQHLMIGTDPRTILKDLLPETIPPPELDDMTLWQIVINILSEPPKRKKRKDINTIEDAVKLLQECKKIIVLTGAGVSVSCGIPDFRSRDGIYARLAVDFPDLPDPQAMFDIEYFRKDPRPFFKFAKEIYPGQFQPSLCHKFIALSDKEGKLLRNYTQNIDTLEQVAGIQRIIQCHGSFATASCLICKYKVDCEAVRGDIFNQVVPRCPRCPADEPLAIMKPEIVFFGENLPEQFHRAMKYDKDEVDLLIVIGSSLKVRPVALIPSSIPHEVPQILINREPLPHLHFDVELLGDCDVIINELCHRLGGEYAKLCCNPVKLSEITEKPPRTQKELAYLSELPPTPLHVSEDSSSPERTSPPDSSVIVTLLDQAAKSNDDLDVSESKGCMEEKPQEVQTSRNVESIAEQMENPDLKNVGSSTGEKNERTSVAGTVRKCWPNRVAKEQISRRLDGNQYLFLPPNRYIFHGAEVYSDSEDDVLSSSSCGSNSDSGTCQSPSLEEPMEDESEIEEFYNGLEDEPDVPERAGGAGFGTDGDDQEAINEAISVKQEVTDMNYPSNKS
UniProt P61809: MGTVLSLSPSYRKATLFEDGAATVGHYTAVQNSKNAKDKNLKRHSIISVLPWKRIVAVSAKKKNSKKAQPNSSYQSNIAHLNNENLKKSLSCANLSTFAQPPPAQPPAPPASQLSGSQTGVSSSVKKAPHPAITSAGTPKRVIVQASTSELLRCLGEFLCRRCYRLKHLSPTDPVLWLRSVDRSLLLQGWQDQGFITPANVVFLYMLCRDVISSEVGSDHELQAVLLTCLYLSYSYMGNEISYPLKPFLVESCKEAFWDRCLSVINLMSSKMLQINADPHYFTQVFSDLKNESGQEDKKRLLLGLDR

Results are given in words; binding and its absence hold for the method and conditions named. In cells and extracts the contact can be indirect. Some results given as binding are weak or reduced against the parent protein; the word gives no strength.

In test [1] the target is T1, SIRT2 (UniProt Q8IXJ6).
T1 sequence: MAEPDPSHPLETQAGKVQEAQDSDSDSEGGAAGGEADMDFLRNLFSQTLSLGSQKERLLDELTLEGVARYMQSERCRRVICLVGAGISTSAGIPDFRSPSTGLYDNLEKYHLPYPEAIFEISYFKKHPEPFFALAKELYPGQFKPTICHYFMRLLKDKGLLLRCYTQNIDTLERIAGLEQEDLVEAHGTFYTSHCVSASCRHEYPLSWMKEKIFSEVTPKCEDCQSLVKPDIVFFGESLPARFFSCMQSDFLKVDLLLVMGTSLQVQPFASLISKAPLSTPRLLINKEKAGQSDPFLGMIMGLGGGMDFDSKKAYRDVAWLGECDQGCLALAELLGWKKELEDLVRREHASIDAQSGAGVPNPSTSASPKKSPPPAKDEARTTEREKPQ
Briefly: co-IP; reciprocal immunoprecipitation and immunoblot with HEK293 cells; RIPA buffer, 4 °C overnight.

Test [2] concerns the target SIRT1 (human) (UniProt Q96EB6). The description is as above.
Test [3] concerns the target Recombinant His-tagged mouse CDK5 wild type (mouse) (UniProt P49615). Briefly: pull-down; 10 ug purified His-CDK5 WT or His-Ac-CDK5 bound to Ni-NTA resin in PBS with protease inhibitors and 10 mM nicotinamide; incubated with pre-cleared lysate (2 mg) of HEK293 cells transfected with p35-FLAG or p25-FLAG, 4 °C overnight; washed with PBS; immunoblot with anti-FLAG, anti-His and anti-Ac-CDK5; only the target purified.

Test [4] deals with Recombinant His-tagged mouse CDK5 acetylated at K33 (mouse) (UniProt P49615). Described as above.

In the case of “CDK5 in HEK293 cells (co-immunoprecipitation) (from UniProt P49615 1-292) (enzyme)”, the binding entry in test [1] and in test [2] was “binds” throughout.
Turning to “p25-FLAG (from UniProt P61809 99-307) (domain or fragment)”, the binding entry in test [3] and in test [4] was “binds” in each case.
p35-FLAG (from UniProt P61809 1-307): the binding entry in test [3] and in test [4] was “binds” each time.
